Source: publication PMC5418850
No constants are given. Whether binding was seen depends on the method and setting. Binding seen in cells or lysates may run through a third protein. A result given as binding can be weak or reduced; the word gives no strength.

Sequences of proteins named here, by UniProt entry; tags and fusion partners are left off. A change or cut given only in a name is not applied to a line headed by its entry.
UniProt Q9EQU5: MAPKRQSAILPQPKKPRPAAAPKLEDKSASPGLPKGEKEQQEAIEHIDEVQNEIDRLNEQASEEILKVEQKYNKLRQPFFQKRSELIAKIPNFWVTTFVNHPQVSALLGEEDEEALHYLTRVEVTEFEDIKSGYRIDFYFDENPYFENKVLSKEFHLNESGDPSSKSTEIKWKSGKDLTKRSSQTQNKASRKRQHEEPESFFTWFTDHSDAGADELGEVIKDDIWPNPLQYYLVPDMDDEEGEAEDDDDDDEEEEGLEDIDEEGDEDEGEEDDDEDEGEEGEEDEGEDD
UniProt O35381: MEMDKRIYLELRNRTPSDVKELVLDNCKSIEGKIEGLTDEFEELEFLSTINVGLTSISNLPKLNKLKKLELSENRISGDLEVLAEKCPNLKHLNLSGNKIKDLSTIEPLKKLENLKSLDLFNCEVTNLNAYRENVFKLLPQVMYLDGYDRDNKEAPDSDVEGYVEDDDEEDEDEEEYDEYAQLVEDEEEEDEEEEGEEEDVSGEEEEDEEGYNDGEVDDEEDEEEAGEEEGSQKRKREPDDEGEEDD

Molecular target: SET (mouse (endogenous in hippocampal CA3)) (UniProt Q9EQU5)
Experiment: co-IP; protein extracts of hippocampal CA3 of wt-siC, htau-siC and htau-siANP mice (lentiviral ANP32A shRNA or scrambled control) incubated overnight at 4 °C with the precipitating antibodies, protein G-Sepharose beads 2 h at 4 °C, washed with cell lysis buffer, SDS-PAGE and blot

ANP32A (from UniProt O35381 1-247)
binding: binds
